# The list shows a part of the results.
# Amino acid sequences for entries named in this document (tags omitted). A change or cut given only in a name is not applied to a line headed by its entry.
# UniProt Q14680: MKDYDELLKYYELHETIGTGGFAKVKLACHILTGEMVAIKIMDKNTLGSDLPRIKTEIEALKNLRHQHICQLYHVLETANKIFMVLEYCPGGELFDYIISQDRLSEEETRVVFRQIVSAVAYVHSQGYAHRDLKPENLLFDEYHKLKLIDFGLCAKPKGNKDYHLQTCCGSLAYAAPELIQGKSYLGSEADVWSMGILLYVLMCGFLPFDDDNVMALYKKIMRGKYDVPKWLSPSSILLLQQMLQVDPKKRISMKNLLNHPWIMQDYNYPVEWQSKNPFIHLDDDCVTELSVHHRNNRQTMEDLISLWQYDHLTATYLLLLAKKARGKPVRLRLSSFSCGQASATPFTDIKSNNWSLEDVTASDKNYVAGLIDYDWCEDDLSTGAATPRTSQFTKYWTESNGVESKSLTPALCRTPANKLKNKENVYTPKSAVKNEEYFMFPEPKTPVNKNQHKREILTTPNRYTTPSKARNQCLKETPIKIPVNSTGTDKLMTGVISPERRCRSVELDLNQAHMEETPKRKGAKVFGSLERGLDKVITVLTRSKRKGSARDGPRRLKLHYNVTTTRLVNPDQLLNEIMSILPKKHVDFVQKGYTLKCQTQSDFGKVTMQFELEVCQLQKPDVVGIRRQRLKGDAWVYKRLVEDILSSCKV
# UniProt Q9Y2X0: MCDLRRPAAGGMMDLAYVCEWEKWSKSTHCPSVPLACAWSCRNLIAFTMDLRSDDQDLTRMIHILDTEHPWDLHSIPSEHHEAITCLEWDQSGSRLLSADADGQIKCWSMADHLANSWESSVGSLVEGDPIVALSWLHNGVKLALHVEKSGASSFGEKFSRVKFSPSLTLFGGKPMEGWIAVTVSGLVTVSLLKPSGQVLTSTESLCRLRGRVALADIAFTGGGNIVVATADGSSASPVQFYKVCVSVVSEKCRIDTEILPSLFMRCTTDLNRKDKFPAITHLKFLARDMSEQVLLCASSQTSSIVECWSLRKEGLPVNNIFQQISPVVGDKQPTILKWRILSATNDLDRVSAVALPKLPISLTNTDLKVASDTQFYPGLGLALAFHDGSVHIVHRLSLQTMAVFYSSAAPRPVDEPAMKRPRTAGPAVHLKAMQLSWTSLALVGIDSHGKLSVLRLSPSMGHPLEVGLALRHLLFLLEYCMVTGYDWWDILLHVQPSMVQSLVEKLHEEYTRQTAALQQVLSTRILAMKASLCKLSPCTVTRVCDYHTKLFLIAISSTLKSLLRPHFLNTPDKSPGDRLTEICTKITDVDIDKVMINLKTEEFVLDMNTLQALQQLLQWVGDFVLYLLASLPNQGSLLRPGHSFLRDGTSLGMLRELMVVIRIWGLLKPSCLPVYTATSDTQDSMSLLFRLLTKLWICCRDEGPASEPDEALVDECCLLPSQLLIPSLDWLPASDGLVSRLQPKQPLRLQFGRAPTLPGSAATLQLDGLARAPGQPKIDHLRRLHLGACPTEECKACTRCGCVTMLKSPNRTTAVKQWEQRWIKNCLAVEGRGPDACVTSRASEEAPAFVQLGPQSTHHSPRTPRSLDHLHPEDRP
# UniProt Q08431: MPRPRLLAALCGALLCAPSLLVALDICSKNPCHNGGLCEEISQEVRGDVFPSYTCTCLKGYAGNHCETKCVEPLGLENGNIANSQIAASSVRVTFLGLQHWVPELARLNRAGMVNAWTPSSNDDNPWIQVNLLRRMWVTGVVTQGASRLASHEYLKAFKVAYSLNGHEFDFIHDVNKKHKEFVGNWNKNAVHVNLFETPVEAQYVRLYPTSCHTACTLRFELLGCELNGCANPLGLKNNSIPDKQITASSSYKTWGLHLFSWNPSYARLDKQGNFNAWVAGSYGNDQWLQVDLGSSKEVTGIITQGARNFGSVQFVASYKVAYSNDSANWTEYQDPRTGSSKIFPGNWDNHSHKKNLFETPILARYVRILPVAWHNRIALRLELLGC
# UniProt P43243: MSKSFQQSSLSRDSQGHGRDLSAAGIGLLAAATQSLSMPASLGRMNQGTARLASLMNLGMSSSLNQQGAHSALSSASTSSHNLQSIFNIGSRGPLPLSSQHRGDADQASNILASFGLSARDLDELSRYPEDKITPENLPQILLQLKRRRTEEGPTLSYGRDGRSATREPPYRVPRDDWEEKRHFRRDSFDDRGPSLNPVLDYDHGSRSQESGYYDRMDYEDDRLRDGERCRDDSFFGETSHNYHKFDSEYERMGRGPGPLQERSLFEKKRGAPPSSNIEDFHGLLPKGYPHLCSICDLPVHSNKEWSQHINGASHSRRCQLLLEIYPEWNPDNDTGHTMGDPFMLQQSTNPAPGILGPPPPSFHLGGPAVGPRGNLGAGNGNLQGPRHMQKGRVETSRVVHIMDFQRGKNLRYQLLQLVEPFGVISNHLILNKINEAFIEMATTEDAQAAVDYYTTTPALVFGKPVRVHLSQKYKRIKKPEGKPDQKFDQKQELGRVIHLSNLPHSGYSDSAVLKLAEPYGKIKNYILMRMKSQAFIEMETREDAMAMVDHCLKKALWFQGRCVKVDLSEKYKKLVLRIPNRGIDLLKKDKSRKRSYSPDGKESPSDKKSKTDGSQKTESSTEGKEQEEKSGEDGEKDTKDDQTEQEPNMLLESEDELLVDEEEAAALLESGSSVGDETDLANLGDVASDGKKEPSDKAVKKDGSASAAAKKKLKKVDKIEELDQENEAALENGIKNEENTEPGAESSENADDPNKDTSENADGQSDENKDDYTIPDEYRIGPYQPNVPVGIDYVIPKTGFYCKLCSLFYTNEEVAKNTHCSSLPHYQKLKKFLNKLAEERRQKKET
# UniProt Q7L2J0: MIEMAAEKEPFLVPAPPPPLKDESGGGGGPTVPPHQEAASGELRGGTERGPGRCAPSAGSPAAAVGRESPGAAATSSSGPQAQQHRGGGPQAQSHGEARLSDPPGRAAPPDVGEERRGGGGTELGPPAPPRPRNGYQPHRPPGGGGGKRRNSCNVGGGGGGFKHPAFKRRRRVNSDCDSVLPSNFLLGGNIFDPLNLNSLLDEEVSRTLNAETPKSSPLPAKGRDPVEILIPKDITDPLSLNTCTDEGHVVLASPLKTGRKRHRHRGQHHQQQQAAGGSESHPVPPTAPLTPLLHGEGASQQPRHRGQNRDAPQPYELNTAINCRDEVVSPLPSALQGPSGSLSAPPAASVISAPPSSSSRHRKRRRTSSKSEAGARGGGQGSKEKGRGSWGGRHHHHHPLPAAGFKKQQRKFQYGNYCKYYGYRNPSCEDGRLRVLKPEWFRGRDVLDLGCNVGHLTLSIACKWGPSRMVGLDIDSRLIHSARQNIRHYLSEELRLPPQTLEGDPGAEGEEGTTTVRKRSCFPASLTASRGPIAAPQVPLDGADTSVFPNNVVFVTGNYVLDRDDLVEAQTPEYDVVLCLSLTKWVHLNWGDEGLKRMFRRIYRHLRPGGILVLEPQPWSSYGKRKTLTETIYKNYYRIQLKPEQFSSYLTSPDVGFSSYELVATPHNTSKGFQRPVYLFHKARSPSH
# UniProt P23368: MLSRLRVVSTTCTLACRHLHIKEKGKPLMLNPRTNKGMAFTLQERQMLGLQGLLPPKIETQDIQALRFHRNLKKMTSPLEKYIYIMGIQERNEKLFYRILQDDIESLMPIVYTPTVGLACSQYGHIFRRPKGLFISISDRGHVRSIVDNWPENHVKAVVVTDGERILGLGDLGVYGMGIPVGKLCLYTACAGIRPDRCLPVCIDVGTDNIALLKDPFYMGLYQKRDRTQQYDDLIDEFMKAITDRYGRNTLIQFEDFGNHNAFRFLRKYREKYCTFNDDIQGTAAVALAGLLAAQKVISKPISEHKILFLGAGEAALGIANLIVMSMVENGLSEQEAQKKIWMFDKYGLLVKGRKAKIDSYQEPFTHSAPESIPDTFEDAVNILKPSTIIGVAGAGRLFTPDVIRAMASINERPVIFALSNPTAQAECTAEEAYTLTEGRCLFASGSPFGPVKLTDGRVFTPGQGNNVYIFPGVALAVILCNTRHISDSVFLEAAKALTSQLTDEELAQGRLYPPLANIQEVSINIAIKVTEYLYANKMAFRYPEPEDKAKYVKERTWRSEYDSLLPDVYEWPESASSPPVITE
# UniProt O14880: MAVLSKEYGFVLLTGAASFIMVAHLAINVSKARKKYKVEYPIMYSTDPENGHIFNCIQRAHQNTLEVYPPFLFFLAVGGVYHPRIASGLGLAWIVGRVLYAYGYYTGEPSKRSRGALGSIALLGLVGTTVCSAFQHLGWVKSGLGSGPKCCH
# UniProt P10620: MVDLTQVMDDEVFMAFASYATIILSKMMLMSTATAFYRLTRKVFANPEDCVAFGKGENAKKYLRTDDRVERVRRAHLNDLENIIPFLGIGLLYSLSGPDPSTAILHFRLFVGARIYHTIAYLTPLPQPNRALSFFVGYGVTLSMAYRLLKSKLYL
# Columns and labels:
# Test in all cases: log2 fold change, soluble protein after heating vs DMSO (PISA); higher = thermal stabilisation; K562 cells, 10 uM, 30 min; active = over 0.2 and 3.5 SD of the protein, either way, in both replicates (recomputed)
# saracatinib = compound: CN1CCN(CCOc2cc(OC3CCOCC3)c3c(Nc4c(Cl)ccc5c4OCO5)ncnc3c2)CC1 [saracatinib]
# Outline: (§1)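 Thermal stability values are relative to control samples and come from duplicates. They are expressed as log2 fold changes. For measurement, K562 cells (2×10^6 cells/mL) received 10 μM compound for 30 min, and aliquots were heated for 3 min over 48°C-58°C, pooled, and extracted at 4°C in PBS with 0.5% NP-40. Soluble protein, the supernatant after 21,000xg for 90 min, was quantified by TMTpro 16plex LC-MS/MS with equalised channel sums.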
# sotrastaurin = compound: CN1CCN(c2nc(C3=C(c4c[nH]c5ccccc45)C(=O)NC3=O)c3ccccc3n2)CC1 [sotrastaurin]
# Outline: as §1
# Tubastatin A = compound: CN1CCc2c(c3ccccc3n2Cc2ccc(C(=O)NO)cc2)C1 [Tubastatin A]
# Outline: as §1
# [1] = compound: CNC(=O)C1=CC=CC=C1NC2=NC(=NC=C2Cl)NC3=C(C=C(C=C3)N4CCOCC4)OC
# Outline: as §1
# defactinib = compound: CNC(=O)c1ccc(Nc2ncc(C(F)(F)F)c(NCc3nccnc3N(C)S(C)(=O)=O)n2)cc1 [defactinib]
# Outline: as §1
# rucaparib = compound: CNCc1ccc(-c2[nH]c3cc(F)cc4c3c2CCNC4=O)cc1 [rucaparib]
# Outline: as §1
# [2] = compound: CNc1nc(-c2ccc3c(N)n[nH]c3c2)cc(N2C[C@@H](C(=O)NC3CCCCC3)CC[C@H]2C)n1
# Outline: as §1
# encorafenib = compound: COC(=O)N[C@@H](C)CNc1nccc(-c2cn(C(C)C)nc2-c2cc(Cl)cc(NS(C)(=O)=O)c2F)n1 [encorafenib]
# Outline: as §1
# [3] = compound: COC(=O)[C@H](CCSC)NC(=O)C1=C(C=C(C=C1)NC[C@H](CS)N)C2=CC=CC=C2
# Outline: as §1
# [4] = compound: COC1=CC=C(C=C1)CN2C=CC3=C2C=C(C=C3)C(=O)NO
# Outline: as §1
# filanesib = compound: CON(C)C(=O)N1N=C(c2cc(F)ccc2F)S[C@@]1(CCCN)c1ccccc1 [filanesib]
# Outline: as §1
# zotarolimus = compound: CO[C@H]1C[C@@H]2CC[C@@H](C)[C@@](O)(O2)C(=O)C(=O)N2CCCC[C@H]2C(=O)O[C@H]([C@H](C)C[C@@H]2CC[C@H](n3cnnn3)[C@H](OC)C2)CC(=O)[C@H](C)/C=C(\C)[C@@H](O)[C@@H](OC)C(=O)[C@H](C)C[C@H](C)/C=C/C=C/C=C/1C [zotarolimus]
# Outline: as §1
# idasanutlin = compound: COc1cc(C(=O)O)ccc1NC(=O)[C@@H]1N[C@@H](CC(C)(C)C)[C@](C#N)(c2ccc(Cl)cc2F)[C@H]1c1cccc(Cl)c1F [idasanutlin]
# Outline: as §1
# alisertib = compound: COc1cc(Nc2ncc3c(n2)-c2ccc(Cl)cc2C(c2c(F)cccc2OC)=NC3)ccc1C(=O)O [alisertib]
# Outline: as §1
# [5] = compound: COc1cc2nc(-c3cc(F)ccc3O)nc(N[C@@H]3CNC[C@H]3C(C)(C)O)c2cc1OC
# Outline: as §1
# gefitinib = compound: COc1cc2ncnc(Nc3ccc(F)c(Cl)c3)c2cc1OCCCN1CCOCC1 [gefitinib]
# Outline: as §1
# [6] = compound: COc1cccc2cc(-c3nc([C@H]4CC[C@H](C(=O)O)CC4)n4ncnc(N)c34)[nH]c12
# Outline: as §1
# lapatinib = compound: CS(=O)(=O)CCNCc1ccc(-c2ccc3ncnc(Nc4ccc(OCc5cccc(F)c5)c(Cl)c4)c3c2)o1 [lapatinib]
# Outline: as §1
# pictilisib = compound: CS(=O)(=O)N1CCN(Cc2cc3nc(-c4cccc5[nH]ncc45)nc(N4CCOCC4)c3s2)CC1 [pictilisib]
# Outline: as §1
Target,log2 fold change (saracatinib),log2 fold change (sotrastaurin),log2 fold change (Tubastatin A),log2 fold change [1],log2 fold change (defactinib),log2 fold change (rucaparib),log2 fold change [2],log2 fold change (encorafenib),log2 fold change [3],log2 fold change [4],log2 fold change (filanesib),log2 fold change (zotarolimus),log2 fold change (idasanutlin),log2 fold change (alisertib),log2 fold change [5],log2 fold change (gefitinib),log2 fold change [6],log2 fold change (lapatinib),log2 fold change (pictilisib)
MAST4 (UniProt O15021),inactive: 0.006,inactive: -0.103,inactive: 0.012,inactive: -0.087,inactive: -0.149,inactive: -0.101,inactive: -0.006,inactive: 0.042,inactive: -0.017,inactive: -0.023,inactive: -0.114,inactive: 0.035,inactive: -0.103,inactive: -0.073,inactive: -0.283,inactive: -0.031,inactive: 0.019,inactive: 0.046,inactive: -0.036
MELK (UniProt Q14680),inactive: -0.005,inactive: 0.166,inactive: 0.074,inactive: -0.347,–,inactive: 0.125,inactive: 0.196,inactive: 0.06,–,inactive: 0.072,inactive: -0.116,inactive: -0.019,inactive: 0.061,–,active: -3.59,inactive: 0.253,–,inactive: -0.006,inactive: -0.079
MED16 (UniProt Q9Y2X0),inactive: -0.006,inactive: -0.044,inactive: -0.098,inactive: 0.074,inactive: -0.009,inactive: -0.004,inactive: 0.043,inactive: -0.025,inactive: -0.052,inactive: -0.032,inactive: 0.062,inactive: -0.029,inactive: 0.144,inactive: -0.024,inactive: -0.063,inactive: 0.016,inactive: 0.005,inactive: 0.064,inactive: 0.011
MFGE8 (UniProt Q08431),inactive: -0.171,inactive: -0.013,inactive: 0.08,inactive: 0.066,inactive: 0.099,inactive: -0.043,inactive: -0.018,inactive: 0.037,inactive: -0.023,inactive: -0.129,inactive: 0.129,inactive: -0.03,inactive: 0.05,inactive: -0.147,inactive: 0.019,inactive: 0.069,inactive: -0.124,inactive: 0.079,inactive: 0.122
MATR3 (UniProt P43243),inactive: -0.008,inactive: -0.012,inactive: -0.025,inactive: 0.017,inactive: 0.148,inactive: 0.085,inactive: -0.097,inactive: -0.127,inactive: -0.145,inactive: 0,inactive: 0.135,–,inactive: 0.316,inactive: -0.244,–,inactive: 0.168,inactive: 0.421,–,inactive: -0.017
MEPCE (UniProt Q7L2J0),inactive: -0.019,inactive: -0.022,inactive: -0.104,inactive: -0.052,inactive: -0.192,inactive: -0.056,inactive: 0.049,inactive: 0.067,inactive: -0.077,active: -0.706,inactive: 0.042,inactive: 0.042,inactive: 0.036,inactive: -0.093,inactive: -0.167,inactive: 0.078,inactive: 0.013,inactive: 0.102,inactive: -0.013
ME2 (UniProt P23368),inactive: 0.061,inactive: 0.014,inactive: 0.026,inactive: 0.151,inactive: -0.037,inactive: -0.011,inactive: -0.11,inactive: 0.015,inactive: 0.034,inactive: -0.037,inactive: 0.012,inactive: -0.052,inactive: 0.196,inactive: 0.002,inactive: 0.076,inactive: 0.023,inactive: -0.046,inactive: -0.003,inactive: 0.056
MGST3 (UniProt O14880),inactive: 0.037,inactive: 0.064,inactive: -0.01,inactive: -0.029,inactive: 0.012,inactive: -0.027,inactive: -0.028,inactive: -0.033,inactive: 0.053,inactive: -0.021,inactive: -0.035,inactive: -0.005,inactive: 0.012,inactive: 0.008,inactive: 0.001,inactive: 0.002,inactive: 0.018,inactive: -0.009,inactive: 0.004
MGST1 (UniProt P10620),inactive: 0.042,inactive: -0.013,inactive: -0.174,inactive: 0.009,inactive: -0.037,inactive: 0.003,inactive: 0.021,inactive: -0.147,inactive: 0.018,inactive: 0.039,inactive: -0.019,inactive: 0.006,inactive: -0.06,inactive: 0.013,inactive: 0.152,inactive: -0.036,inactive: -0.043,inactive: -0.009,inactive: 0.112

# Part of the list above in another layout:
Target	log2 fold change (saracatinib)	log2 fold change (sotrastaurin)	log2 fold change (Tubastatin A)	log2 fold change [1]	log2 fold change (defactinib)	log2 fold change (rucaparib)	log2 fold change [2]	log2 fold change (encorafenib)	log2 fold change [3]	log2 fold change [4]	log2 fold change (filanesib)	log2 fold change (zotarolimus)	log2 fold change (idasanutlin)	log2 fold change (alisertib)	log2 fold change [5]	log2 fold change (gefitinib)	log2 fold change [6]	log2 fold change (lapatinib)	log2 fold change (pictilisib)
MAST4 (UniProt O15021)	inactive: 0.006	inactive: -0.103	inactive: 0.012	inactive: -0.087	inactive: -0.149	inactive: -0.101	inactive: -0.006	inactive: 0.042	inactive: -0.017	inactive: -0.023	inactive: -0.114	inactive: 0.035	inactive: -0.103	inactive: -0.073	inactive: -0.283	inactive: -0.031	inactive: 0.019	inactive: 0.046	inactive: -0.036
MELK (UniProt Q14680)	inactive: -0.005	inactive: 0.166	inactive: 0.074	inactive: -0.347	–	inactive: 0.125	inactive: 0.196	inactive: 0.06	–	inactive: 0.072	inactive: -0.116	inactive: -0.019	inactive: 0.061	–	active: -3.59	inactive: 0.253	–	inactive: -0.006	inactive: -0.079

# Reference: the supplement of paper PMC10849652
